Results taken from PMC10735217.
These are yes or no findings as the source states them, for the method shown. Binding seen in cells or lysates may run through a third protein. Some results given as binding are weak or reduced against the parent protein; the word gives no strength. Sequences can lack the tags named with a protein.

Sequences of proteins named here, by UniProt entry; tags and fusion partners are left off.
UniProt P46937: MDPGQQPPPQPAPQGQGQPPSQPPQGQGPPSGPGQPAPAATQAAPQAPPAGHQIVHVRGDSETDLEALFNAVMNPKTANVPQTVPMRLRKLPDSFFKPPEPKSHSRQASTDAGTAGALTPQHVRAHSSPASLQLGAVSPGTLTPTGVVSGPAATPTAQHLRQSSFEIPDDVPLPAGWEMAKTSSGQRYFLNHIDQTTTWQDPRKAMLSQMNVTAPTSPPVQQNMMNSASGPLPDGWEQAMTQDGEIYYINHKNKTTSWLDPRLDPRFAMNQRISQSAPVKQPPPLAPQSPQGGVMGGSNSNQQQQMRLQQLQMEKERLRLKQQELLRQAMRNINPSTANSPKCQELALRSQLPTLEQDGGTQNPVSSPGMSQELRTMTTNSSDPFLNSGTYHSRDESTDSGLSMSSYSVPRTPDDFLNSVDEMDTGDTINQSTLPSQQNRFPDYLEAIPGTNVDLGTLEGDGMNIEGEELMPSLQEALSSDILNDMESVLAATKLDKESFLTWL

Biological target: T1, FLAG-tagged wild-type AMOTL2 (Angiomotin-like 2) (UniProt Q9Y2J4)
T1 sequence: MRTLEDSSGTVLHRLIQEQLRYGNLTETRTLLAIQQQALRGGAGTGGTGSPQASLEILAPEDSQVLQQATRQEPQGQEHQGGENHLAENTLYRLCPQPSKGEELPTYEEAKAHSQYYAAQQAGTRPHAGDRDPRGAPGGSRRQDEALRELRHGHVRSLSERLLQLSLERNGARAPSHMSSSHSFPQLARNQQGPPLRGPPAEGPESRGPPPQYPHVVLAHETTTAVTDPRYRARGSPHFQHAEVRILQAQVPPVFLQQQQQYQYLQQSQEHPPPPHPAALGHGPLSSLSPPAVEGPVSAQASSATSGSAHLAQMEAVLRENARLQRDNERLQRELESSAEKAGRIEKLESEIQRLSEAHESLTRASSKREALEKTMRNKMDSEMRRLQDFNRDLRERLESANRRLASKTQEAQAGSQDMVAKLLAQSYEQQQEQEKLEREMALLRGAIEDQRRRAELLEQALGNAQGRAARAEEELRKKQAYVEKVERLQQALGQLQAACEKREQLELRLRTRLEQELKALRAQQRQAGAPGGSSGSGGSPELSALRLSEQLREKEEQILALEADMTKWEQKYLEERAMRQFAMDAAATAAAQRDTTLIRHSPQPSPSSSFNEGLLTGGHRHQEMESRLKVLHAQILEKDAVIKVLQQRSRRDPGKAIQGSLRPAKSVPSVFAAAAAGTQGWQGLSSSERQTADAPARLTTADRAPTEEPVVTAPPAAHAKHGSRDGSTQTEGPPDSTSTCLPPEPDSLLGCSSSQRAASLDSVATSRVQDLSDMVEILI
Test: co-IP; anti-FLAG M2 magnetic beads on lysates of HEK293T cells at high cell density co-expressing FLAG-AMOTL2 constructs and HA-YAP; overnight at 4 °C; eluted with FLAG peptide; anti-HA immunoblot

With “HA-tagged YAP (Yes-associated protein) (from UniProt P46937 1-504)” the binding was “binds”.
